In PubChem BioAssay AID504444 (National Center for Advancing Translational Sciences (NCATS), 2011):
Out of some 360,000 compounds screened, about 7,500 (2.1%) were called active. Inconclusive results, whose numbers are uncertain, are shown with a selection of clear calls. Calls follow the shape of the dose curve; as a rule, active = well fitted inhibition curve with a large enough effect; inconclusive = small, poorly fitted or top-dose-only effect, or effect the other way; inactive = flat fitted curve, though single readings scatter. A potency beside an inconclusive call is a rough fit, not a confirmed value.

Assay: Nrf2 qHTS screen for inhibitors; also: nearly all actives have a fitted effect of over 60% in size
Settings: A549 ARE-Fluc reporter, luciferase luminescence, 18-24 h; series mostly up to 46 µM
Method in brief: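 Nrf2 function is reported as luminescence of an ARE-controlled luciferase in A549 cells. Compounds were tested at several concentrations, and a CellTiter-Fluor read on the same wells flagged cytotoxicity.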
Potency is read from the fitted curve at half-maximal effect.

SMILES | Potency
COc1ccc(-c2csc(NC(=O)Cc3ccccc3F)n2)cc1OC | active: 20.6 µM
Cc1cc(C)c(N(CC(=O)NC(C)(C)C)C(=O)CNC(=O)c2cccs2)c(C)c1 | inconclusive: 5.17 µM [activator, partial curve]
c1coc(-c2nc3c([nH]2)CCc2nonc2-3)c1 | inactive
N#Cc1c(C(F)(F)F)cc(-c2cccs2)nc1SCC(=O)Nc1cccc(C(F)(F)F)c1 | inconclusive: 32.6 µM [falling, single point]
CCOc1ccc(C(=O)Nc2ccc(S(=O)(=O)N3CCN(C)CC3)cc2)cc1 | inconclusive: 18.4 µM [falling, partial curve, poor fit]
CCOc1ccc(NC(=O)CN(C)C(=O)CCNC(=O)c2ccc(Br)cc2)cc1OCC | inconclusive: 18.4 µM [activator, partial curve, poor fit]
Cc1ccc(F)cc1NC(=S)NCCc1ccccc1 | inconclusive: 29.1 µM [falling, partial curve, poor fit]
O=C(c1ccccc1Br)N1CCC(c2nc3ccccc3o2)CC1 | inactive
CCOc1ccc(CNc2nnnn2C)cc1 | inconclusive: 23.1 µM [falling, partial curve, poor fit]
O=C1c2ccccc2C(=O)N1CCSc1nc2ccccc2c(=O)n1CCCN1CCOCC1 | inconclusive: 3.66 µM [activator, partial curve]
CCN(c1ccccc1)c1ncnc2c1cnn2-c1ccccc1 | inconclusive: 8.2 µM [activator, partial curve]
NC(=O)CC(NC(=O)Cc1ccc(Br)cc1)c1ccc(N2CCN(c3ccccn3)CC2)c([N+](=O)[O-])c1 (stereo unspecified) | inconclusive: 13 µM [falling, partial curve]
Cc1cccc(NC(=O)c2cc(Cl)nc3ccccc23)n1 | inactive
CC12COC3(C(=O)NCCc4ccccc4)CC1CCC32C (stereo unspecified) | inconclusive: 20.6 µM [activator, single point]
COc1ccccc1N=C1SC(C(=O)Nc2ccccc2OC)CC(=O)N1C (stereo unspecified) | inconclusive: 6.51 µM [falling, single point]
Cc1ccc(C2=NN(C(=S)Nc3ccccc3)C(c3ccco3)C2)cc1 (stereo unspecified) | inconclusive: 9.2 µM [activator, partial curve]
O=C(NCCOCCn1c(=O)oc2ccccc21)Nc1cccc(Cl)c1 | inconclusive: 23.1 µM [falling, single point]
CCN(CC)S(=O)(=O)c1cccc(C(=O)N/N=C/c2ccc([N+](=O)[O-])o2)c1 | inconclusive: 11.6 µM [activator, partial curve]
CS(=O)(=O)N1CCN(c2ccc(C(=O)NC3C4CC5CC(C4)CC3C5)cc2[N+](=O)[O-])CC1 (stereo unspecified) | inconclusive: 18.4 µM [falling, single point]
Cc1noc(C)c1-c1ccc2ncnc(NCC3CCN(C)CC3)c2c1 | inactive
CN1CCN(c2nc(-c3ccncc3)nc3ccccc23)CC1 | inconclusive: 25.9 µM [falling, single point]
Cn1cccc1C(=O)NC(=O)COC(=O)Cc1coc2ccc3ccccc3c12 | inconclusive: 18.4 µM [activator, partial curve, poor fit]

SMILES | Potency
CCCCCn1c2c(c(=N)c3ccccc31)CCC2 | active: 2.59 µM
O=C(NC(=S)N1CCCC1)c1ccc(Cl)cc1Cl | inactive
Cc1nc2c(O)c3c(c(O)c2nc1C)C1C=CC3CC1 | inactive
Cc1cccc(NC(=O)c2ccc(CNS(=O)(=O)c3ccc4c(c3)C(C)(C)C(=O)N4C)cc2)c1 | active: 20.6 µM
CC(=O)N1CCSc2ccc(S(=O)(=O)NCc3ccc(F)cc3)cc21 | inconclusive: 18.4 µM [falling, single point]
CCc1c(C(=O)Nc2ccccc2C(N)=O)csc1C | inconclusive: 20.6 µM [activator, single point]
COc1ccc(-n2c(N)c(C(=O)NCC3CCCO3)c3nc4ccccc4nc32)c(OC)c1 (stereo unspecified) | inconclusive: 10.3 µM [falling, partial curve, poor fit]
CCCCCCn1nc(C(=O)OCC(=O)c2c(N)n(C)c(=O)n(C)c2=O)c2ccccc2c1=O | active: 23.1 µM
Cc1nc2cc(C)c(C)cc2o1 | inconclusive: 16.4 µM [falling, partial curve, poor fit]
Cc1ccccc1C(=O)N(Cc1ccc(N(C)C)cc1)CC1CCCO1 (stereo unspecified) | inactive
Cc1ccc(N2CCN(C(=O)NCc3noc4ccc(C)cc34)CC2)c(C)c1 | inconclusive: 23.1 µM [falling, single point]
CCOC(=O)Nc1ccc2c(c1)nc1n2CCN(CCOC)C1 | inconclusive: 16.4 µM [activator, partial curve, poor fit]
Cc1ccc(-n2c(=O)c3c(c4cc(C)ccc4n3C)n(Cc3ccc(F)cc3)c2=O)cc1 | inconclusive: 7.31 µM [activator, partial curve, poor fit]
Cc1ccc2c(c1)-c1nc3ccccc3cc1C2=NC1CCCCC1 | inconclusive: 32.6 µM [falling, single point]
COc1ccc2c(c1)O[C@H](c1ccc3c(c1)OCO3)[C@@H](O)C2=O | inconclusive: 11.6 µM [activator, partial curve]
CCOC(=O)N1CCN(CC(=O)Nc2sc(CC)cc2C(=O)c2ccc(OC)cc2)CC1 | inconclusive: 23.1 µM [falling, single point]
Cc1nc2ccc(C(=O)OCc3ccccc3Br)cc2nc1C | inconclusive: 25.9 µM [activator, single point]
Cc1ccc(NC(=O)CSc2nnc([C@@H]3CCCN3C(=O)OC(C)(C)C)o2)c(C)c1 | inconclusive: 4.11 µM [activator, full curve, poor fit]
CN(CC(=O)Nc1ccc(OC(F)(F)F)cc1)C1CCCCC1 | inconclusive: 20.6 µM [falling, partial curve, poor fit]
Cc1ccc(NC(=O)C(Cc2ccccc2)N2Cc3ccccc3C2=O)cc1Cl (stereo unspecified) | inconclusive: 29.1 µM [falling, single point]
COc1cccc(NC(=O)CN2CCN(S(=O)(=O)c3ccc(F)cc3)CC2)c1 | inactive
COCc1cc(=O)[nH]c2cc(NC(=O)C3CC3)c(C)cc12 | inconclusive: 6.51 µM [falling, partial curve, poor fit]

SMILES | Potency
N#CC(=C(O)CN1CCN(c2ccccc2F)CC1)c1nc(-c2ccccc2)cs1 | inconclusive: 32.6 µM [falling, single point]
COc1ccc2c(c1)CC/C(=C\C=C\c1ccccc1)C2=O | inconclusive: 13 µM [falling, partial curve, poor fit]
c1ccc(Nc2ncnc3sccc23)cc1 | inactive
CCCn1c(N)c(C(=O)CN(C)CC(=O)Nc2ccccc2C(F)(F)F)c(=O)[nH]c1=O | inconclusive: 10.3 µM [falling, partial curve, poor fit]
COCC(C)n1c(C)cc(C(=O)CSc2nc3ccccc3c(=O)[nH]2)c1C (stereo unspecified) | inconclusive: 18.4 µM [falling, single point]
c1ccc2c(c1)oc1c(N3CCN(Cc4ccc5c(c4)OCO5)CC3)ncnc12 | inconclusive: 4.61 µM [activator, partial curve, poor fit]
O=c1c2ccccc2n2c(-c3ccccc3F)nnc2n1CCc1ccccc1 | inactive
O=S(=O)(c1cccc(Cl)c1)N1CCN(c2nc(-c3ccccc3)nc3ccccc23)CC1 | inactive
O=C1NC(CCO)C(=O)NC1CCO (stereo unspecified) | inactive
COc1cc(OC)c(N(C)C(=O)c2cc3c(=O)oc4ccccc4c3s2)cc1Cl | inconclusive: 6.51 µM [falling, partial curve, poor fit]
CC(C)S(=O)(=O)CC(=O)c1ccc(Cl)cc1 | inconclusive: 1.64 µM [falling, partial curve, poor fit]
COCCn1c(C)cc(C(=O)COC(=O)c2n[nH]c3ccccc23)c1C | inconclusive: 0.58 µM [activator, full curve, poor fit]
Cc1ccc(C(=O)N(c2ccc(C)cc2)S(=O)(=O)c2ccc(Cl)cc2)cc1 | inconclusive: 23.1 µM [falling, single point]
CCCS(=O)(=O)c1nnnn1-c1cccc(OC)c1 | inconclusive: 29.1 µM [falling, single point]
CCC1=C(c2ccc(C)cc2)S(=O)(=O)N=C1N1CCC(C(=O)NCCc2ccc(Cl)cc2)CC1 | inconclusive: 23.1 µM [falling, single point]
COc1ccc(CCNC(=O)C2CCN(S(=O)(=O)N3CC(C)CC(C)C3)CC2)cc1OC (stereo unspecified) | inconclusive: 16.4 µM [falling, partial curve, poor fit]
COCC(=O)N1CCC(Oc2ccc(C(=O)NC(C)c3csc(C)n3)cc2)CC1 (stereo unspecified) | inconclusive: 29.1 µM [activator, single point]
CCn1c(C)[n+](Cc2ccccc2)c2ccc(Cl)cc21 | inactive
CC(C)C(=O)Nc1ccc(NC(=S)NC(=O)c2ccc([N+](=O)[O-])cc2)cc1 | inactive
Cc1ccc(C)c(OCCn2cc(/C=C(\C#N)C(=O)NCC3CCCO3)c3ccccc32)c1 (stereo unspecified) | inconclusive: 25.9 µM [falling, single point]
COc1ccc2[nH]c3nc(SCc4nnc(-c5ccc(C)cc5)o4)nnc3c2c1 | inconclusive: 5.8 µM [falling, full curve]
Cc1ccc(N2CC(C(=O)NCC3CCCO3)CC2=O)cc1Cl (stereo unspecified) | inactive

Arranged by number of heavy atoms (descending): 5 of the compounds above.
SMILES | Potency
N#CC(=C(O)CN1CCN(c2ccccc2F)CC1)c1nc(-c2ccccc2)cs1 | inconclusive: 32.6 µM [falling, single point]
COCCn1c(C)cc(C(=O)COC(=O)c2n[nH]c3ccccc23)c1C | inconclusive: 0.58 µM [activator, full curve, poor fit]
Cc1ccc(N2CC(C(=O)NCC3CCCO3)CC2=O)cc1Cl (stereo unspecified) | inactive
CCCS(=O)(=O)c1nnnn1-c1cccc(OC)c1 | inconclusive: 29.1 µM [falling, single point]
c1ccc(Nc2ncnc3sccc23)cc1 | inactive
